Results on six molecules are retold here after paper PMC8155215, “The splicing factor XAB2 interacts with ERCC1-XPF and XPG for R-loop processing”.

Chains of the proteins cited; added tags and fusions are not shown.
UniProt Q99KP6: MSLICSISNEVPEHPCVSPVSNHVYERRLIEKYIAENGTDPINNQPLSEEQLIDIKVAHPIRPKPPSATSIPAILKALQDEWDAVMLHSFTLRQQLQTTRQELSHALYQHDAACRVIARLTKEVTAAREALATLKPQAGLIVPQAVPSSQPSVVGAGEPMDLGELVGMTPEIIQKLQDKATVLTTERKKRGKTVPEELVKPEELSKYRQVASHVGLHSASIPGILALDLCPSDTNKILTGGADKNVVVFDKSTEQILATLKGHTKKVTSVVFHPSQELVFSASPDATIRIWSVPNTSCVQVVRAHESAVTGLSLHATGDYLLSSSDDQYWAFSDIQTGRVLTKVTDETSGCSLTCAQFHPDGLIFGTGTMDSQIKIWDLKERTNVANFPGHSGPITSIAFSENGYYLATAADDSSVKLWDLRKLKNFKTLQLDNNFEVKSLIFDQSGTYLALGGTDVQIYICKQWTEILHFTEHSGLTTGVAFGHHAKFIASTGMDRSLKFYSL
UniProt Q64267: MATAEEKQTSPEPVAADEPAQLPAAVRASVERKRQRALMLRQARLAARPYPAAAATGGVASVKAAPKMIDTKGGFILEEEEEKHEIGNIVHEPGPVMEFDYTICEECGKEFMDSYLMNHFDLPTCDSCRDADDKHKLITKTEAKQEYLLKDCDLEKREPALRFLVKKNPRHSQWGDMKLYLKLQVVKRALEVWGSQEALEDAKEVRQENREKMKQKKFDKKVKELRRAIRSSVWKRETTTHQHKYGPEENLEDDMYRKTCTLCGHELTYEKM

The target of assay [1] is T1, biotin-tagged XAB2 (XPA-binding protein 2) from aviXab2+/+;birA knock-in mice (mouse) (UniProt Q9DCD2).
T1 sequence (chain, biotin on the 15aa Avitag (added in vivo by the BirA ligase)): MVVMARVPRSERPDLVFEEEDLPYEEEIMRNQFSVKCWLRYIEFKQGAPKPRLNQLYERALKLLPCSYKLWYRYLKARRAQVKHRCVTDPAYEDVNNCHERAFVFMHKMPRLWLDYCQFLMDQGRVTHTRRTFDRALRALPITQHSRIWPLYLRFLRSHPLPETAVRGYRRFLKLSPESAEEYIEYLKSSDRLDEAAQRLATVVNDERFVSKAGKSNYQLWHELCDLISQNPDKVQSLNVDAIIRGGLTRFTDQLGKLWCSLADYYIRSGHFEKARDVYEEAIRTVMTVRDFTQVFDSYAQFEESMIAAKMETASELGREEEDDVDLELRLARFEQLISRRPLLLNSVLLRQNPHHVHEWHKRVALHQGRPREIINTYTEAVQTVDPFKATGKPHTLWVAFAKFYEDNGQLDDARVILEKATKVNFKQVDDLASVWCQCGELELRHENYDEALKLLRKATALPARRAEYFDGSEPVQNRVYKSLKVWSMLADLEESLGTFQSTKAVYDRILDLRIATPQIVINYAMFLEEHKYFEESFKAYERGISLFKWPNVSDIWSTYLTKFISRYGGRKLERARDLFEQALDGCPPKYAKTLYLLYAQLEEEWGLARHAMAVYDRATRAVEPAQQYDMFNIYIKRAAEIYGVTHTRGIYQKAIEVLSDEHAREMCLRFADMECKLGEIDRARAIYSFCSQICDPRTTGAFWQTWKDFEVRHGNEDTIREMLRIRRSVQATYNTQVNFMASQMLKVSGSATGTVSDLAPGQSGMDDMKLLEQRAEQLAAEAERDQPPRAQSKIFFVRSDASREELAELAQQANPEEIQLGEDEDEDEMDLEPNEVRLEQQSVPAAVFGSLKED
Description: pull-down; bXAB2 captured on M-280 streptavidin beads from nuclear extracts of P15 bXAB2 livers, western blot; BirA livers as control. For orientation: A western blot detects proteins with antibodies after separation by electrophoresis.

Assay [2] has as its target T1, biotin-tagged XAB2 (XPA-binding protein 2) from aviXab2+/+;birA knock-in mice (mouse). Description: pull-down; bXAB2 captured on streptavidin beads from nuclear extracts of bXAB2 MEFs (basal or tRA-treated), with RNase H treatment, western blot.
Assay [3] shares this target. Description: pull-down; bXAB2 captured on M-280 streptavidin beads from nuclear extracts of primary bXAB2 MEFs, western blot; untreated, UV-irradiated (10 J/m2) or tRA-treated cells; BirA MEFs as control.
Assay [4] addresses T2, biotin-tagged xeroderma pigmentosum complementation F (bXPF) (mouse) (UniProt Q9QZD4).
T2 sequence (chain, biotin (biotin-tagged)): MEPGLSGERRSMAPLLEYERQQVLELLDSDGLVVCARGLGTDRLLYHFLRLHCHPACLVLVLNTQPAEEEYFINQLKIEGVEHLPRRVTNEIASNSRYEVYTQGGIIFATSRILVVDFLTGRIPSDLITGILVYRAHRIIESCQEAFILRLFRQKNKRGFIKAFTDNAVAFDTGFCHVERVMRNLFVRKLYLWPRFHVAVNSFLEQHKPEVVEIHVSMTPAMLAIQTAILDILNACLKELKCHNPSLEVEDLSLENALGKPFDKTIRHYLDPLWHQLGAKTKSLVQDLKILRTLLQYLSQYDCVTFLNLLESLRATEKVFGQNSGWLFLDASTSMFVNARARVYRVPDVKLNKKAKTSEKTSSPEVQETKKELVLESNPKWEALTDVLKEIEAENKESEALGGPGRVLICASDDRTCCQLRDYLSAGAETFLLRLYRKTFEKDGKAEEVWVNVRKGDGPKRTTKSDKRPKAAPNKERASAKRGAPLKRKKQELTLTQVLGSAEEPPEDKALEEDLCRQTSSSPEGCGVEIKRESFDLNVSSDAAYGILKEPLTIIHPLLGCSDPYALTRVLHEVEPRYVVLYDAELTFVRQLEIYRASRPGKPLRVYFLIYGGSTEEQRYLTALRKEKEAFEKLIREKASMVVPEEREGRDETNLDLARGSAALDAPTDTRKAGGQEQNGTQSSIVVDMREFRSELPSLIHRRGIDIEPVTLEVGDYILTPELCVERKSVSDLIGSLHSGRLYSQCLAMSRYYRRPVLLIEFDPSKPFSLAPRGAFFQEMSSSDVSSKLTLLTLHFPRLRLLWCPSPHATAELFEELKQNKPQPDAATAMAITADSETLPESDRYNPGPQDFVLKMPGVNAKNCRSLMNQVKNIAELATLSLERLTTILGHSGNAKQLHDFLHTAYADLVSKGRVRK
Description: pull-down; bXPF captured on M-280 streptavidin beads from nuclear extracts of tRA-treated cells, western blot; said to be independent of DNA.

Assay [5] deals with T1, biotin-tagged XAB2 (XPA-binding protein 2) from aviXab2+/+;birA knock-in mice (mouse). Description: pull-down; bXAB2 captured on M-280 streptavidin beads from nuclear extracts of primary bXAB2 MEFs, western blot; untreated, UV-irradiated (10 J/m2) or tRA-treated cells; BirA MEFs as control. This is another data set of the same source.

Results are given in words; binding and its absence hold for the method and conditions named. Binding seen in cells or lysates may run through a third protein. Some results given as binding are weak or reduced against the parent protein; the word gives no strength. Tags and fused reporters may be left off the sequences shown.

Regarding “pre-mRNA-processing factor 19 (PRP19) (from UniProt Q99KP6 1-504)”, the binding result in assay [1], in assay [2] and in assay [3] was “binds” each time. For “xeroderma pigmentosum, complementation group A protein (XPA) (from UniProt Q64267 1-272)”, in assay [3], the binding result is given as “binds”.

B1: Aquarius (AQR) (protein, UniProt Q8CFQ3 1-1481)
chain: MAAPAQPKKIVAPTVSQINAEFVTQLACKYWAPHIKKKSPFDIKVIEEIYEKEIVKSRFAIRKIMLLEFSQYLENYLWMNYSPEVSSKAYLMSICCMVNEKFRENVPAWETFKKKPDHFPFFFKCILKAALAETDGEFSLHEQTLLLLFLDHCFNSLEVDLIRSQVQQLISLPMWMGLQPARLELELKKTPKLRKFWNLIKKNDEKMDPEAREQAYQERRFLSRLIQKFISVLKSIPLSEPVTMDKVHYCERFIELMIDLEALLPTRRWFNTILDDSHLLVHCYLSSLVHREEDGHLFSQLLDMLKFYTGFEINDQTGNALTENEMTTIHYDRITSLQRAAFAHFPELYDFALSNVAEVDARDSLVKFFGPLSSNTLHQVASYLCLLPTLPKNEDTTFDKEFLLELLVSRHERRISQIQQLNQMPLYPTEKIIWDENIVPTEYYSGEGCLALPKLNLQFLTLHDYLLRNFNLFRLESTYEIRQDIEDSVSRMKPWQSEYGGVVFGGWARMAQPIVAFTVVEVAKPNIGENWPTRVRADVTINLNVRDHIKDEWEGLRKHDVCFLITVRPTKPYGTKFDRRRPFIEQVGLVYVRGCEIQGMLDDKGRVIEDGPEPRPNLRGESRTFRVFLDPNQYQQDMTNTIQNGAEDVYDTFNVIMRRKPKENNFKAVLETIRNLMNTDCVVPDWLHDIILGYGDPSSAHYSKMPNQIATLDFNDTFLSIEHLKASFPGHNVKVTVSDPALQIPPFRITFPVRSGKGKKRKDADGEEDDTEEAKTLIVEPHVIPNRGPYPYNQPKRNTIQFTHTQIEAIRAGMQPGLTMVVGPPGTGKTDVAVQIISNIYHNFPEQRTLIVTHSNQALNQLFEKIMALDIDERHLLRLGHGEEELETEKDFSRYGRVNYVLARRIELLEEVKRLQKSLGVPGDASYTCETAGYFFLYQVMSRWEEYMSRVKNSGTACPDAAPDAAQVATFFPFHEYFANAPQPIFKGRSYEEDMEIAEGCFRHIKKIFTQLEEFRASELLRSGLDRSKYLLVKEAKIIAMTCTHAALKRHDLVKLGFKYDNILMEEAAQILEIETFIPLLLQNPQDGFSRLKRWIMIGDHHQLPPVIKNMAFQKYSNMEQSLFTRFVRVGVPTVDLDAQGRARASLCNLYNWRYKNLGNLPHVQLLPEFSTANAGLLYDFQLINVEDFQGVGESEPNPYFYQNLGEAEYVVALFMYMCLLGYPADKISILTTYNGQKHLIRDIINRRCGNNPLIGRPNKVTTVDRFQGQQNDYILLSLVRTRAVGHLRDVRRLVVAMSRARLGLYIFARVSLFQNCFELTPAFSQLTARPLHLHIIPTEPFPTSRKNGERPPHEVQVIKNMPQMANFVYNMYMHLIQTTHHYHQTFLQLPPAMVEEGEEGQSQETEMEAEEETVSAQGNLTPSPADASLSQETPAAQPDCSSQTEDTSAPCDIATAAEPVSAAAEAATPQDAESVPTETE
As for B1, the binding entry in assay [1] is “binds”.

B2: XPG endonuclease (protein, UniProt P35689 1-1170)
chain: MGVQGLWKLLECSGHRVSPEALEGKVLAVDISIWLNQALKGVRDSHGNVIENAHLLTLFHRLCKLLFFRIRPIFVFDGDAPLLKKQTLAKRRQRKDSASIDSRKTTEKLLKTFLKRQALKTAFRSSRHEAPPSLTQVQRQDDIYVLPPLPEEEKHSSEEEDEKQWQARMDQKQALQEEFFHNPQAIDIESEDFSSLPPEVKHEILTDMKEFTKRRRTLFEAMPEESNDFSQYQLKGLLKKNYLNQHIENVQKEMNQQHSGQIQRQYQDEGGFLKEVESRRVVSEDTSHYILIKGIQGKKVMDVDSESLPSSSNVHSVSSNLKSSPHEKVKPEREPEAAPPSPRTLLAIQAAMLGSSSEDEPESREGRQSKERNSGATADAGSISPRTCAAIQKALDDDNDEKVSGSSDDLAEKMLLGSGLEQEEHADETAERGGGVPFDTAPLTPSVTEVKECVTSGSSANGQTDSAHSFTTASHRCDTPKETVSLARAVKEASQISSECEVEGRPAALSPAFIGTPSSHVSGVLSEREPTLAPPTTRTHSDQGIDIHPEDPELQNGLYPLETKCNSSRLSSDDETEGGQNPAPKACSTVHVPAEAMSNLENALPSNAEERGDFQETIQLREVPEAAARELISAPKPMGPMEMESEESESDGSFIEVQSVVSNSELQTESSEASTHLSEKDAEEPRETLEEGTSRDTECLLQDSSDIEAMEGHREADIDAEDMPNEWQDINLEELDALESNLLAEQNSLKAQKQQQDRIAASVTGQMFLESQELLRLFGVPYIQAPMEAEAQCAMLDLTDQTSGTITDDSDIWLFGARHVYKNFFNKNKFVEYYQYVDFYSQLGLDRNKLINLAYLLGSDYTEGIPTVGCVTAMEILNEFPGRGLDPLLKFSEWWHEAQNNKKVAENPYDTKVKKKLRKLQLTPGFPNPAVADAYLRPVVDDSRGSFLWGKPDVDKISTFCQRYFGWNRMKTDESLYPVLKHLNAHQTQLRIDSFFRLAQQEKQDAKLIKSHRLNRAVTCILRKEREEKAPELTKVTEALDDAKGKTQKRELPYKKETSVPKRRRPSGNGGFLGDPYCSESPQESSCEDGEGSSVMSARQRSAAESSKISCSDVPDLVRDPPHGRQGCVSTSSSSEDDEDKAKTVLVTARPVFGKKKLKLKSMKRRKKKT
Regarding B2, the binding result in assay [4] was “binds”.

B3: BCAS2 (protein, UniProt Q9D287 1-225)
chain: MAGTGLVAGEVVVDALPYFDQGYEAPGVREAAAALVEEETRRYRPTKNYLSYLTAPDYSAFETDIMRNEFERLAARQPIELLSMKRYELPAPSSGQKNDITAWQECVNNSMAQLEHQAVRIENLELMSQHGCNAWKVYNENLVHMIEHAQKELQKLRKHIQDLNWQRKNMQLTAGSKLREMESNWVSLVSKNYEIERTIVQLENEIYQIKQQHGEANKENIRQDF
B3: the binding result in assay [1] and in assay [5] was “binds” in each case.

B4: SNRP40 (protein, UniProt Q6PE01 1-358)
chain: MIEQQKRKGPELPLVPVKRPRHELLLGAAGAGPGAGPQQATPGALLQAGPPRCSSLQAPIMLLSGHEGEVYCCKFHPNGSTLASAGFDRLILLWNVYGDCDNYATLKGHSGAVMELHYNTDGSMLFSASTDKTVAVWDSETGERVKRLKGHTSFVNSCYPARRGPQLVCTGSDDGTVKLWDIRKKAAVQTFQNTYQVLAVTFNDTSDQIISGGIDNDIKVWDLRQNKLTYTMRGHADSVTGLSLSSEGSYLLSNAMDNTVRVWDVRPFAPKERCVKIFQGNVHNFEKNLLRCSWSPDGSKIAAGSADRFVYVWDTTSRRVLYKLPGHAGSINEVAFHPDEPIILSASSDKRLYMGEIQ
In the case of B4, in assay [5], the binding entry is “binds”.
